Paper PMC7819943, “Rice protein-binding microarrays: a tool to detect cis-acting elements near promoter regions in rice”
The other results are listed elsewhere or left out.

Target: T1, OsSMF1 (Oryza sativa, UniProt Q6ZLB0 1-436)
T1 sequence: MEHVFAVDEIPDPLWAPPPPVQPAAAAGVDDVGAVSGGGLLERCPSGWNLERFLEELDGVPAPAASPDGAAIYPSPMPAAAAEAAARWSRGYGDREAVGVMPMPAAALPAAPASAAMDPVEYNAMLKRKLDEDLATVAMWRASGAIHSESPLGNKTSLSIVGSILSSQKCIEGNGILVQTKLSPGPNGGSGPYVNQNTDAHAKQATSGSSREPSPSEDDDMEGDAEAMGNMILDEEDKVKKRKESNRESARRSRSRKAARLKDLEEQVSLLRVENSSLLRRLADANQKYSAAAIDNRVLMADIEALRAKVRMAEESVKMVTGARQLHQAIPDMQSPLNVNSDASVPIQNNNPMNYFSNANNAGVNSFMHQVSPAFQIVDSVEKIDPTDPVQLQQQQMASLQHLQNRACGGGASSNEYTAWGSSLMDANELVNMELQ
Assay: protein-binding microarray (RPBM); PBS, 2% BSA, 51.3 ng/ul salmon testes DNA, 50 uM zinc acetate, 200 nM TF, 25 C, 1 h; high values mean tight binding
Conditions: protein: recombinant; tags: N-terminal polyhistidine and DsRed monomer fusion (pET32a); chain copies: 2; label: CyDye5-dUTP incorporated in the synthesized complementary strand; 3' TTTTT single-stranded linker to array surface; dsDNA, one strand shown
Outline: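 For the binding signal, per-feature fluorescence intensity was read in arbitrary units on an Axon 4000B scanner. Before scanning, a 2% BSA-blocked custom Agilent array made double-stranded with Cy5-dUTP was washed after 1 h at 25 °C with 200 nM protein and 50 µM zinc acetate. The proteins were Ni–NTA-purified transcription factors with N-terminal polyhistidine and DsRed fusions, expressed in E. coli BL21-CodonPlus.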

| Sequence | binding signal |
| --- | --- |
| ATTTGGAGAATCTATGGATGAGGATGAGTCATAATCCAAACGGAGTCACCTAGTGCAG | 8180 fluorescence intensity (a.u.) |
| AAAGCTCTCCACGTCACCACCGCCGCCACGCTCTCGCCTCCGGAGTCACCTAGTGCAG | 33500 fluorescence intensity (a.u.) |
| CGAACGGCCGTCTGCCACGTCATTTTCGCCGGCCCTCTGGCGGAGTCACCTAGTGCAG | 17900 fluorescence intensity (a.u.) |
| CAAGAGTTATCAATACATATCGGAATATCGTGACCTATCACGGAGTCACCTAGTGCAG | 29200 fluorescence intensity (a.u.) |
| TGTCAAAAGTTGCAGGGGCAATGGCGTGGAGGGAGGGTACCGGAGTCACCTAGTGCAG | 3720 fluorescence intensity (a.u.) |
| GCTCGTGGAGCACGGATACGCCGTCACCGTCGCACTCATCCGGAGTCACCTAGTGCAG | 4360 fluorescence intensity (a.u.) |
| TTCTGTTTAGCACCGTATGCATTATGGCATTTAGTTCTTGCGGAGTCACCTAGTGCAG | 3400 fluorescence intensity (a.u.) |
| GGAGATCAGCGCCGGCGGCCTCGTCAGCGCCCTCCTCGGTCGGAGTCACCTAGTGCAG | 7560 fluorescence intensity (a.u.) |
| ACTCCGGTCCAGGAAAATTATTCCTATAGTAATGTAATAACGGAGTCACCTAGTGCAG | 42900 fluorescence intensity (a.u.) |
| TATGTATGATCTCTTCCTGTAACATTTTCATCATCTAACCCGGAGTCACCTAGTGCAG | 3480 fluorescence intensity (a.u.) |
| TTGTGACAAGTAACTGAGGATCACATCACGATCGGCAACCCGGAGTCACCTAGTGCAG | 3560 fluorescence intensity (a.u.) |
| CACTGAGTCACTGCCAGCTCAGCAAAAGCCAAAGTGTCAACGGAGTCACCTAGTGCAG | 11500 fluorescence intensity (a.u.) |
| TGGGGAGTAGGAGGCGAGGGTGGCGTCATCGTGGTCGAGGCGGAGTCACCTAGTGCAG | 8200 fluorescence intensity (a.u.) |
| ACGAGTGCCACCGCGACCTCGTCCGCTCCGCCTACCTCCCCGGAGTCACCTAGTGCAG | 8630 fluorescence intensity (a.u.) |
| AGCCTAGCACAGTCATCAGGTAGCCTATAGTGGTGCCTAACGGAGTCACCTAGTGCAG | 4510 fluorescence intensity (a.u.) |
| CAATATGACGTACGGCCATCCTGGCGTCACCGTGACGACGCGGAGTCACCTAGTGCAG | 6600 fluorescence intensity (a.u.) |
| TAAATGCATTTGTTTCAGCCTCATATGTCAGCACTCCCATCGGAGTCACCTAGTGCAG | 3370 fluorescence intensity (a.u.) |
| ATTCAAGTATCTAGTTTTGAACGTGTTACCATAATCTGGCCGGAGTCACCTAGTGCAG | 11800 fluorescence intensity (a.u.) |
| CATCCTCTTCTCCTTCTCCTTGTTGGAAATGCTTTCCTTTCGGAGTCACCTAGTGCAG | 15500 fluorescence intensity (a.u.) |
| CCGTGCTACAGCTGGCTACAAATATGTAGCCCTATGCTCTCGGAGTCACCTAGTGCAG | 18300 fluorescence intensity (a.u.) |
| AAAATACCATTACTATTTAGCATATCGGCTACGTGTTACTCGGAGTCACCTAGTGCAG | 3660 fluorescence intensity (a.u.) |

A second format for part of the listing above:
Sequence | binding signal
ATTTGGAGAATCTATGGATGAGGATGAGTCATAATCCAAACGGAGTCACCTAGTGCAG | 8180 fluorescence intensity (a.u.)
AAAGCTCTCCACGTCACCACCGCCGCCACGCTCTCGCCTCCGGAGTCACCTAGTGCAG | 33500 fluorescence intensity (a.u.)

Going on with the list:

| Sequence | binding signal |
| --- | --- |
| ACGCCATCGCGTCGCGTCATTCTTCCAATCGAGAACTCTTCGGAGTCACCTAGTGCAG | 4720 fluorescence intensity (a.u.) |
| AATAAAGAAATTCTTGGACTACGTGGTACTCCCTCCGTCCCGGAGTCACCTAGTGCAG | 6040 fluorescence intensity (a.u.) |
| ACTGAAGTAATGCTTTATACACGGTTACACGACACGTCATCGGAGTCACCTAGTGCAG | 16100 fluorescence intensity (a.u.) |
| CTACATACACCCGTCCGAGTCATACGCGAGACCGCCCTCGCGGAGTCACCTAGTGCAG | 6800 fluorescence intensity (a.u.) |
| TCGAACGCTCCACATTGAGCCACGTACACCGCCTCCTTCTCGGAGTCACCTAGTGCAG | 3880 fluorescence intensity (a.u.) |
| TGAAACCAGATCACTTTACATCCCTACGTGGCCGCCTACGCGGAGTCACCTAGTGCAG | 5220 fluorescence intensity (a.u.) |
| TGGAACCCACTGCTTTGCCTATAAATATGTAGCTATAGCTCGGAGTCACCTAGTGCAG | 4160 fluorescence intensity (a.u.) |
| ACGTCATCTGCCTGACGTGTCACCGACACATCCCGGACAGCGGAGTCACCTAGTGCAG | 23500 fluorescence intensity (a.u.) |
| GGGATAAAATTGCCACGTAAGCGCCACCTTAACACTATGTCGGAGTCACCTAGTGCAG | 34100 fluorescence intensity (a.u.) |
| CCATCCCTCCCTCCTTGAAAATGCCAGCTCATTCCAATACCGGAGTCACCTAGTGCAG | 6880 fluorescence intensity (a.u.) |
| CGTTGAAAACGAGTACTACGTGTTTGATGAATCGCCTGCCCGGAGTCACCTAGTGCAG | 3230 fluorescence intensity (a.u.) |
| CGTGACGGGCGACGACACTAACAGCGACACGTTAGCCGGACGGAGTCACCTAGTGCAG | 4230 fluorescence intensity (a.u.) |
| TACCATTGTGCTATGGGAAAAGTACACGCAAGGTCCCTCACGGAGTCACCTAGTGCAG | 5760 fluorescence intensity (a.u.) |
| ACACCACCTCACACTTGCTCACCTAGACCATGTTCCTACTCGGAGTCACCTAGTGCAG | 3740 fluorescence intensity (a.u.) |
| AAACCCAATCCAGTTAGGAATAGAACATTAGATATCCAACCGGAGTCACCTAGTGCAG | 3940 fluorescence intensity (a.u.) |
| TTGTTCCAACGCTGTGCCATGTAATATTGCATTTGAATCACGGAGTCACCTAGTGCAG | 3780 fluorescence intensity (a.u.) |
| CTCACTCATCCTAATCCAGCATCAGTCCCAGCTCGATCTCCGGAGTCACCTAGTGCAG | 3850 fluorescence intensity (a.u.) |
| CAGTGTACATATATACACACACTGACTCACTGAGAATCTCCGGAGTCACCTAGTGCAG | 4650 fluorescence intensity (a.u.) |
| CCAGCTGGCGTGCGCGTCAGCTAAACTGCTGGCGCGTACGCGGAGTCACCTAGTGCAG | 4680 fluorescence intensity (a.u.) |
| ATCGTCGTCGCCGCCGCCTCCCATGTCGTTGCTGTCGCCGCGGAGTCACCTAGTGCAG | 3240 fluorescence intensity (a.u.) |
| CTAGATATCCCTTGTTTGTGTGTATGATGTATGCACTCCACGGAGTCACCTAGTGCAG | 3990 fluorescence intensity (a.u.) |
